Drawing on patent publication EP3689907A1, this text covers binding for two molecules.

Changes are numbered by the printed parent chain. These are yes or no findings as the source states them, for the method shown. Binding calls can cover weak binding; strength is not graded here.

The assay concerns the target human IL-17A (human). The experiment in a line: competition ELISA: coated scFv, biotinylated IL-17A. Background: ELISA stands for enzyme-linked immunosorbent assay.

B1: PRO571 (scFv)
scFv: DIQMTQSPSSLSASVGDRVTITCQASESIYRYLSWYQQKPGKAPKLLIYLASTLTSGVPSRFSGSGSGTDFTLTISSLQPEDFATYYCQSNFGTASTTYYNTFGGGTKLTVLGGGGGSGGGGSGGGGSGGGGSEVQLVESGGGLVQPGGSLRLSCAASGFSFSGFYYMCWVRQAPGKGLEWIGCIDTGDGTTYYASWAKGRFTISRDNSKNTVYLQMNSLRAEDTAVYYCARDAAYGGYAYPAHGMDLWGQGTLVTVSS
On to B1, for which the binding result is “binds”.

B2: PRO592 (scFv)
scFv: B1 scFv with R152T, Q251P
As to B2, the binding entry is on record as “binds”.
